In patent US20130177994A1, “METHODS FOR QU[…] DETERMINATION OF THE d- AND l- ENANTIOMERS OF AMPHETAMINE AND METHAMPHETAMINE” (CLINICAL REFERENCE LABORATORY, INC., priority 2012, published 2013):
Some entries share one result that the patent states for a list of compounds.

Experiment: Analyte stability in matrix (oral fluid, refrigerated)
Type: physicochemical
Conditions: 20 ng/mL standard stored refrigerated

## CC(N)Cc1ccccc1 (centres unmarked) [Amphetamine, amphetamine]
  Stability in oral fluid: at least 35 days

## CN[C@@H](C)Cc1ccccc1 [Methamphetamine, methamphetamine]
  Stability in oral fluid: at least 35 days
